Data on 1 substance can be found in article PMC8123387.

The chains behind the UniProt entries cited, without tags or fusion partners. Residues count along the entry.
UniProt Q08722, residues 19-323: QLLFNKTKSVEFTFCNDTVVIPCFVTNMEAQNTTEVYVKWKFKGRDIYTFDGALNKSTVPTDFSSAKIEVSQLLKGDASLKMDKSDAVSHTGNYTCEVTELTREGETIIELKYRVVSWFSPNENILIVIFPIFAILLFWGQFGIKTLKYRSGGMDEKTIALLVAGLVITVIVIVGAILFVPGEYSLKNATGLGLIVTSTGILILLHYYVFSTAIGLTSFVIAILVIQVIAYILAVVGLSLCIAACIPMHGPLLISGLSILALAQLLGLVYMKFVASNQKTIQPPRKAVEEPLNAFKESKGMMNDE
UniProt Q9UMX0: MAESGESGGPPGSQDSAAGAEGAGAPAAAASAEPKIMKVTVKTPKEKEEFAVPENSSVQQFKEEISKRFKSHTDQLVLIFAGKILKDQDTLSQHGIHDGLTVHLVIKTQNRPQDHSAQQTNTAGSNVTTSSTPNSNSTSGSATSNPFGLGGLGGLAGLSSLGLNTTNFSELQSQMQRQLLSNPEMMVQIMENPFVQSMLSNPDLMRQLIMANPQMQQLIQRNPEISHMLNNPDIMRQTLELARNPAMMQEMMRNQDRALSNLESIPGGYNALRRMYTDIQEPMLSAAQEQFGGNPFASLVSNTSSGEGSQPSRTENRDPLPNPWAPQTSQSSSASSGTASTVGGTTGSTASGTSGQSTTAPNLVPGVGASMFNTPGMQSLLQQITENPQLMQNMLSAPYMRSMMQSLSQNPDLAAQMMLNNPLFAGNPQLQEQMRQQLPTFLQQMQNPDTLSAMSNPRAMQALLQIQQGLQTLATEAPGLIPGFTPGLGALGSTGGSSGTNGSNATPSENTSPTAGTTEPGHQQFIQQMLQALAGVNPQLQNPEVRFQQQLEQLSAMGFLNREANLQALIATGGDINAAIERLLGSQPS
UniProt O14980: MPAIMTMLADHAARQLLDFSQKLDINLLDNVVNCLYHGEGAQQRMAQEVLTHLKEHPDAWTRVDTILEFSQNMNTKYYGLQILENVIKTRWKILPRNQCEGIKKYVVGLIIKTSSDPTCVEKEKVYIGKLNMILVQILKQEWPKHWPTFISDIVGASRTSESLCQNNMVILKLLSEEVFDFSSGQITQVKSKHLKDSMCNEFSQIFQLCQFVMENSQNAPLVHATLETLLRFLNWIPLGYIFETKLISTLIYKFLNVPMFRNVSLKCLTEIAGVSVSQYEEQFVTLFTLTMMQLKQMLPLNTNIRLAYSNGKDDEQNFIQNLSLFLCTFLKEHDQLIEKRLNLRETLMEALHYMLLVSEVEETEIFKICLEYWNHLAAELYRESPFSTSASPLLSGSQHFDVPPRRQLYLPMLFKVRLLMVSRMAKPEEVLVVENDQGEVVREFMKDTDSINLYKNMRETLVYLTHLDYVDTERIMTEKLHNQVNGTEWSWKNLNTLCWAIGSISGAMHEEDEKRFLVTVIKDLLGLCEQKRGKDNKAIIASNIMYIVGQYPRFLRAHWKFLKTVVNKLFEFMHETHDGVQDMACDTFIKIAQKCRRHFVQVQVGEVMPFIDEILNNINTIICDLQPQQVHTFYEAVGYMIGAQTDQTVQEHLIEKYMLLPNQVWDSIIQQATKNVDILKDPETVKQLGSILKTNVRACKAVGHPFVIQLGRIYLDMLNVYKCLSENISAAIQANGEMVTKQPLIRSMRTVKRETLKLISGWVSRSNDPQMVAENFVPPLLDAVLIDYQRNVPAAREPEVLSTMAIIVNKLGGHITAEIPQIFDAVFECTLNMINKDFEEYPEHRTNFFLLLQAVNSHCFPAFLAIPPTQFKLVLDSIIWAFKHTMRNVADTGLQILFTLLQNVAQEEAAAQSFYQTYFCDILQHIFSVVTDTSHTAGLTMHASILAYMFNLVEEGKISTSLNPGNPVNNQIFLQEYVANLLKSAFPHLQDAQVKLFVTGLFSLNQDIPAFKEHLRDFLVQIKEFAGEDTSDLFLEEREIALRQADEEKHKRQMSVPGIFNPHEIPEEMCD

These are yes or no findings as the source states them, for the method shown. In cells and extracts the contact can be indirect. These calls come from enrichment with a bait or labelling near it, and not all partners need be listed.

Assay [1] deals with CD47 (human (endogenous in T cells)) (UniProt Q08722). Put plainly: affinity purification with mass spectrometry + co-IP; T cells; identified by mass spectrometry and confirmed by co-immunoprecipitation; interaction of CD47 with exportin-1 inhibited by leptomycin B.
Assay [2] has as its target ubiquilin-1 (human (endogenous in T cells)) (UniProt Q9UMX0). The assay is described as above.

For exportin-1 (from UniProt O14980 1-1071), the binding entry in assay [1] and in assay [2] was “binds” throughout.
